This passage reports cell number change and AC50 results from PubChem BioAssay AID2685 (National Center for Advancing Translational Sciences (NCATS), 2010).

The list shows a part of the results. The main result of the screen is listed elsewhere. These columns were measured beside it and carry no call. The list favours compounds with an active or inconclusive main result. The note in brackets gives the kind of curve behind each potency; many fits are weak.

A short description of this assay: qHTS Assay for Lipid Storage Modulators in Drosophila S3 Cells.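 On cell number change: cells counted by Cell Tracker Red CMTPX staining in the red channel.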 The following applies: BODIPY lipid droplet fluorescence, 18-24 h; for cell number change: measured here: cell count max response, cells fed with added oleic acid. In outline:
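Laser-scanning cytometry quantifies lipid droplet accumulation (500–530 nm total intensity; droplet/cell object ratio) in oleic acid-fed (400 uM added) Drosophila S3 cells treated with a concentration series. 20 uM Triacsin C defined 100% inhibition.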
For orientation: qHTS replaces the single test concentration by a dilution series.

[1] abbreviates: measured here: lipid fluorescence (Fed channel) AC50, cells fed with added oleic acid.
[2] abbreviates: measured here: cell number channel AC50, cells fed with added oleic acid.

For orientation: AC50 means the concentration giving half of the maximal activity seen. High values mean weaker potency, low ones greater potency. With `CC(C)CNS(=O)(=O)c1cc(C(=O)OCC(=O)N2CCOCC2)c(Cl)cc1Cl`, the cell number change came out at 3.15%. Further, the concentration at half-maximal activity (AC50) under setting [1] was 0.82 µM [rising, full curve].

As to `O=C(Cn1nnc(-c2ccc(Cl)cc2)n1)NCCC1=CCCCC1`, the cell number change was -0.825%. For the same molecule, the concentration at half-maximal activity (AC50) under setting [1] was 0.146 µM [rising, single point].

For the molecule `Cc1ccc(S(=O)(=O)NCc2ccccc2)cc1C(=O)N(C)Cc1ccccc1F`, the cell number change is -23.7%. Also, under setting [1], the half-maximal activity concentration (AC50) was 20.6 µM [falling, partial curve].

On to `O=C(CS(=O)(=O)c1ccccc1)N(CCCN1CCOCC1)c1nc2c(F)cccc2s1`, for which the cell number change was 13.3%.

On to `Cc1[nH]c2ccccc2c1CN1CCN(c2ccccn2)CC1`, for which the cell number change was found to be 20.5%. Further, the AC50 under setting [2] is 0.00517 µM [rising, full curve, poor fit].

Regarding `CC(C)NC(=O)COC(=O)C1CSC2(c3ccc(Br)cc3)CCC(=O)N12` (stereo not drawn), the cell number change is -35.3%. Moreover, the AC50 under setting [2] was 0.00461 µM [falling, full curve, poor fit]. For the same molecule, the half-maximal activity concentration (AC50) under setting [1] is 0.00461 µM [falling, full curve, poor fit].

For `Cc1cccc(NC(=O)CN2CCSc3ccccc32)c1`, the cell number change is -16.8%. In addition, the AC50 under setting [2] was 0.82 µM [falling, single point]. Moreover, the concentration at half-maximal activity (AC50) under setting [1] was 6.51 µM [rising, partial curve, poor fit].

`COc1cc(NC(=S)NN2CCN(C)CC2)cc(OC)c1`: the cell number change was -43.3%. For the same molecule, under setting [2], the AC50 is 3.66 µM [falling, full curve]. Further, the AC50 under setting [1] is 3.66 µM [falling, full curve].

As for `Cc1cccc(C)c1OCCNC(=O)c1ccc2ccccc2n1`, the cell number change was -46.5%. Under setting [2], the AC50 was 0.231 µM [falling, full curve].

As for `Cc1cccc(NCN2C(=O)C3C4C=CC(C4)C3C2=O)c1` (stereo not drawn), the cell number change came out at 16%. The AC50 under setting [1] is 0.13 µM [falling, full curve, poor fit].

As for `COc1ccc(Cl)cc1-c1nc(-c2ccc(NC(=O)c3cccs3)cc2)no1`, the cell number change is -19.3%. In addition, under setting [2], the concentration at half-maximal activity (AC50) is 0.58 µM [falling, full curve, poor fit]. In addition, the concentration at half-maximal activity (AC50) under setting [1] was 23.1 µM [falling, single point].

For `COCCn1c(SCC(N)=O)nnc1-c1c[nH]c2ccccc12`, the cell number change is -10.6%. Moreover, the AC50 under setting [1] is 16.4 µM [rising, single point].

As to `CC(C)CC(=O)N/C(N)=N/c1nc2ccccc2o1`, the cell number change came to 6.25%. In addition, the concentration at half-maximal activity (AC50) under setting [1] was 0.82 µM [rising, full curve, poor fit].

Regarding `C/C(CC(=O)Nc1ccc(Cl)cc1C(F)(F)F)=N\NC(=O)c1ccccn1`, the cell number change was determined as 30.2%. Besides, under setting [2], the AC50 is 0.00461 µM [rising, full curve, poor fit]. Further, under setting [1], the AC50 was 29.1 µM [falling, single point].

Take `Cc1sc2ncnc(NCCCn3ccnc3)c2c1C`: the cell number change is -18.6%.

As for `COc1ccc(/C=C(\NC(=O)c2ccco2)C(=O)N2CCCCC2)cc1`, the cell number change came out at 20.2%. In addition, the AC50 under setting [1] is 6.51 µM [rising, single point].

Regarding `CCN(CC)CCN1C(=O)C(O)=C(C(=O)c2cc3cccc(OC)c3o2)C1c1ccc(F)cc1` (stereo not drawn), the cell number change was -44.8%. Besides, the half-maximal activity concentration (AC50) under setting [2] was 18.4 µM [falling, single point]. Besides, under setting [1], the AC50 was 29.1 µM [falling, single point].

For the molecule `C=CCn1c(C)cc(C(=O)CN2C(=O)c3ccccc3C2=O)c1C`, the cell number change was 74.1%.

In the case of `COc1ccccc1CNC(=O)COC(=O)C12CC3CC(CC(O)(C3)C1)C2`, the cell number change is -46.3%. Further, under setting [2], the half-maximal activity concentration (AC50) was 0.82 µM [falling, partial curve]. The AC50 under setting [1] was 0.58 µM [falling, full curve, poor fit].

For `COc1cc(/C=C/C(=O)OCC(=O)N2CCCC2)ccc1OCC#N`, the cell number change is -8.77%. Further, the AC50 under setting [2] is 4.11 µM [rising, single point]. The AC50 under setting [1] was 6.51 µM [falling, single point].

As to `CNc1nc(OC)nc(N2CCOCC2)n1`, the cell number change is -8.67%. The AC50 under setting [1] is 0.82 µM [falling, full curve, poor fit].

On to `COc1ccc(Cc2cnc(N)s2)cc1`, for which the cell number change was found to be 2.39%.

Take `CCOc1ccc(C(=O)NC2CCN(C(=O)Nc3ccc(F)cc3)CC2)cc1`: the cell number change is 41.2%. For the same molecule, under setting [2], the AC50 was 4.11 µM [rising, partial curve, poor fit].

Take `Cc1cccc(C)c1NC(=O)CNC(=O)CNC(=O)c1ccc2c(c1)OCO2`: the concentration at half-maximal activity (AC50) under setting [2] was 0.146 µM [rising, partial curve, poor fit] and the half-maximal activity concentration (AC50) under setting [1] is 0.103 µM [rising, full curve].

For the molecule `CC(C(=O)N1CCc2ccccc21)N1CCN(c2cccc(C(F)(F)F)c2)CC1` (stereo not drawn), the cell number change turned out to be 70.5%. Under setting [2], the concentration at half-maximal activity (AC50) is 10.3 µM [rising, partial curve]. Also, the AC50 under setting [1] was 14.6 µM [rising, partial curve].

For the molecule `O=C(NCc1ccc2c(c1)OCO2)C1CC(c2ccc(Cl)cc2)=NO1` (stereo not drawn), the cell number change was -21.7%.

As for `CC(C)(C)OC(=O)CNC(=O)c1nc[nH]c1C(=O)N1CCNCC1`, the cell number change stood at 24.8%. Moreover, the concentration at half-maximal activity (AC50) under setting [1] was 3.66 µM [rising, full curve].

With `O=C(CN1CCCc2ccccc21)NCc1ccc2c(c1)OCO2`, the cell number change was -6.14%. The concentration at half-maximal activity (AC50) under setting [2] was 6.51 µM [rising, single point]. Under setting [1], the concentration at half-maximal activity (AC50) is 16.4 µM [rising, single point].

With `C/C(=N/n1cnnc1)c1cccnc1`, the cell number change is -22.6%. Further, under setting [1], the AC50 was 4.61 µM [falling, partial curve].

As to `CCOc1ccc(C(=O)OCCCN(C)C)cc1`, the cell number change was -61.5%. In addition, under setting [2], the AC50 is 9.2 µM [falling, partial curve]. Besides, the half-maximal activity concentration (AC50) under setting [1] is 0.00411 µM [falling, full curve, poor fit].

On to `CCOc1ccc(C(=O)Nc2ncn[nH]2)cc1`, for which the cell number change was 0.275%. For the same molecule, the half-maximal activity concentration (AC50) under setting [1] is 29.1 µM [falling, single point].

In the case of `O/N=C/c1cc2ccccc2n1Cc1ccccc1F`, the cell number change is -14.2%. Besides, the AC50 under setting [1] was 0.731 µM [falling, partial curve].

Take `Cc1ccc(NC(=O)[C@@H]2CCCN2S(=O)(=O)c2ccccc2F)cc1S(=O)(=O)N1CCOCC1`: the cell number change worked out at 1.71%. Further, the concentration at half-maximal activity (AC50) under setting [1] was 3.66 µM [rising, single point].

`C=CCn1c(SCC(=O)Nc2cccc(C)c2)nnc1-c1cnccn1`: the cell number change amounted to 1.33%. The AC50 under setting [1] was 1.84 µM [rising, full curve, poor fit].

For the molecule `Cc1ccc(COC(=O)c2ccc3c(c2)C(=O)N(CCCN2CCOCC2)C3=O)cc1`, the cell number change was -30%. Also, under setting [1], the concentration at half-maximal activity (AC50) was 29.1 µM [falling, single point].

As to `CN(C)CCCN1C(=O)c2cc3ccccc3cc2C1=O`, the cell number change was -6.32%. Also, under setting [1], the AC50 is 4.11 µM [rising, single point].

For `S=c1[nH]nc(CSc2nc3ccccc3s2)n1C1CCCCC1`, the cell number change is -25.2%. Further, the AC50 under setting [1] is 0.0651 µM [rising, full curve, poor fit].

`c1ccc(CCN2CN=C(Nc3nc4ccccc4s3)NC2)cc1`: the cell number change came out at 48.2%. Moreover, the AC50 under setting [2] is 29.1 µM [rising, single point].

`CCCc1nc(SCC(=O)Nc2nccs2)c2ccccc2n1`: the cell number change was -15.9%.

In the case of `COc1cccc(NC(=O)c2ccc(Cn3cc([N+](=O)[O-])cn3)o2)c1`, the cell number change is -49.5%. Further, the AC50 under setting [2] was 29.1 µM [falling, single point].

Consider `COc1cccc(-c2nn(-c3ccc(C)cc3)cc2C(=O)NCC2CCCO2)c1` (stereo not drawn), for which the cell number change amounted to 27.3%.

Take `COc1ccccc1NC(=O)Cn1c(=O)n2nc(C)nc2c2ccccc21`: the cell number change turned out to be 9.11%. In addition, under setting [1], the half-maximal activity concentration (AC50) is 0.164 µM [rising, full curve, poor fit].

On to `Cc1cccc(NC(=O)c2cc(-c3c(C)cc(C)cc3O)n[nH]2)c1`, for which the cell number change came out at 6.34%. For the same molecule, under setting [2], the half-maximal activity concentration (AC50) is 0.00461 µM [rising, full curve, poor fit].

For the molecule `COc1ccccc1NC(=O)Cn1nnc(C(=O)NCCc2ccccc2)c1N`, the cell number change was determined as 15.4%. Besides, under setting [2], the AC50 is 0.206 µM [rising, partial curve]. The AC50 under setting [1] is 1.16 µM [rising, partial curve, poor fit].

As to `Cc1cc(C)n(CCCNC(=O)CN(C)S(=O)(=O)c2ccc(Cl)cc2)n1`, the cell number change was -25%. The AC50 under setting [2] was 4.61 µM [rising, single point].

Regarding `CCOC(=O)Cn1c(-c2ccccc2)cc(SC)c(C#N)c1=O`, the cell number change was -8.97%. Further, under setting [1], the AC50 is 2.06 µM [falling, full curve].

Take `C=CCSC(=C(C#N)C#N)c1cc2c([nH]1)CCCC2`: the cell number change is -51.7%. Under setting [2], the concentration at half-maximal activity (AC50) was 29.1 µM [falling, single point]. The AC50 under setting [1] is 4.11 µM [rising, partial curve].

Turning to `COc1cccc(NC(=O)Nc2cccc(C(=O)O)c2)c1`, the cell number change is -15.4%. Besides, the AC50 under setting [1] is 0.517 µM [falling, full curve, poor fit].

As to `O=C(OC1CCCCC1=O)c1cccc(S(=O)(=O)N2CCCCC2)c1` (stereo not drawn), the cell number change is -13.1%. Besides, under setting [2], the half-maximal activity concentration (AC50) is 0.146 µM [falling, full curve]. Also, under setting [1], the concentration at half-maximal activity (AC50) is 8.2 µM [falling, partial curve].

As to `c1ccc(-c2ccccc2OCCOCCN2CCCCC2)cc1`, the cell number change is -14.5%. Moreover, the concentration at half-maximal activity (AC50) under setting [1] is 16.4 µM [rising, single point].

In the case of `O=C(CN1CCN(c2cccc(Cl)c2)CC1)Nc1ccc(S(=O)(=O)N2CCOCC2)cc1`, the cell number change is -7.82%. Moreover, under setting [1], the half-maximal activity concentration (AC50) is 2.91 µM [falling, partial curve].

`O=C(CNC(=O)c1ccc(F)cc1)N/N=C/c1cn[nH]c1-c1ccccc1`: the cell number change is -26.9%. Also, the AC50 under setting [2] is 0.116 µM [rising, full curve, poor fit]. In addition, the AC50 under setting [1] was 4.11 µM [rising, partial curve, poor fit].

`COc1ccc(NC(=O)CCl)cn1`: the cell number change was -23%.

Take `COc1ccc(NC(=O)CN2CCN(C(=O)N3CCOCC3)CC2)cc1`: the cell number change came to 14.7%.

Consider `Cc1nn(C)cc1C1C2=C(CC(C)(C)CC2=O)N(c2ccccc2)C2=C1C(=O)CC(C)(C)C2`, for which the cell number change was -1.21%.

As for `Cc1c(C(=O)N2CCOCC2)c(S(=O)(=O)Nc2ccc(C(C)C)cc2)c(C)n1C`, the cell number change worked out at 17.1%.

As for `COc1ccc(N(C(C)C(=O)N/N=C/c2ccc(OCC(C)C)cc2)S(C)(=O)=O)cc1` (stereo not drawn), the cell number change is 9.29%. For the same molecule, under setting [1], the AC50 was 16.4 µM [falling, single point].

Consider `Fc1ccc(-c2csc(Nc3ccccn3)n2)c(F)c1`, for which the cell number change is -30.1%. The half-maximal activity concentration (AC50) under setting [2] is 20.6 µM [falling, single point]. The concentration at half-maximal activity (AC50) under setting [1] is 6.51 µM [rising, single point].

Regarding `Cc1cccc(S(=O)(=O)c2c(N)n(/N=C/c3ccco3)c3nc4ccccc4nc23)c1`, the cell number change was -26.5%. For the same molecule, under setting [1], the AC50 is 5.17 µM [falling, partial curve, poor fit].
